# Construct, isoform or probe ends are uncertain for at least one entry. For part of these data: Where cells or extracts were used, other partners may take part. For part of these data: Negatives hold for the conditions tested. Protein sequences can lack the tags named with them.
# Key:
# ZNF524 ZF1-2 (human) = molecular target: T1, ZNF524 ZF1-2 (human) (UniProt Q96C55); assay: ITC; settings: Fig 1d prints >20; ITC: 20 mM Tris-HCl pH 7.5, 150 mM NaCl, 20 C; recombinant protein
# T1 sequence (looked up, limits assumed): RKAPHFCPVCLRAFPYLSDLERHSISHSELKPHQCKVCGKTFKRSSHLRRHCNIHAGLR
# endogenous ZNF524 = molecular target: T2, endogenous ZNF524 (UniProt Q96C55); assay: pull-down; settings: pull-down: 50 mM Tris-HCl pH 7.5, 150 mM NaCl, 0.5% IGEPAL, 5 mM MgCl2, 1 mM DTT, salmon sperm DNA, 4 C; protein in an extract; label: biotin-7-dATP
# T2 sequence (looked up, limits assumed): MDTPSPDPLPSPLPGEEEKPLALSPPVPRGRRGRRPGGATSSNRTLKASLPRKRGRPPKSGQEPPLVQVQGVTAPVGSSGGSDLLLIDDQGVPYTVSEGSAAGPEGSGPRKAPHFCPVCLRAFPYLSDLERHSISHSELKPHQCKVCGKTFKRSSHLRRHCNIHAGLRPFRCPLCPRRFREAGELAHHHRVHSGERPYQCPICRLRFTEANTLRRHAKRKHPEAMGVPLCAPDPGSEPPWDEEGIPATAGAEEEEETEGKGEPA
# [1] = molecular target: T3, ZNF524 ZF1-4 minimal domain (human) (UniProt Q96C55); assay: ITC; settings: G4 annealed in 100 mM KCl, main text says no interaction detected; ITC: 20 mM Tris-HCl pH 7.5, 150 mM NaCl, 20 C; recombinant protein; residues 110-223; folded or branched DNA
# T3 sequence (looked up): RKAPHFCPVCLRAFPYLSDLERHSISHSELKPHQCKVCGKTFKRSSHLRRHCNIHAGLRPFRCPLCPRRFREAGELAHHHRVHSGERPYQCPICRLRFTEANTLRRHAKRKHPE
sequence,measurement,setting,value
GGTTAGGGTTAG (double strand) [TTAGGG 12-bp duplex],Kd,ZNF524 ZF1-2 (human),> 100 µM
GTGAGTGTGAGTGTGAGTGTGAGTGTGAGTGTGAGTGTGAGTGTGAGTGTGAGTGTGAGT / ACACTCACACTCACACTCACACTCACACTCACACTCACACTCACACTCACACTCACACTC [GTGAGT scrambled pull-down bait],binding result,endogenous ZNF524,no binding
TTAGGGTTAGGGTTAGGGTTAGGG [(TTAGGG)4-G4],Kd,[1],3.58 µM
